Measured values reported in US10253014B2, “Cyclic amine derivative and pharmaceutical use thereof” (Toray Industries, Inc., priority 2015, dated 2019).
Some entries share one result that the patent states for a list of compounds.

Test system: mouse partial sciatic nerve ligation model
Assay: mouse partial sciatic nerve ligation model (Seltzer model), von Frey test
Type: in vivo
Conditions: positive control, 10 mg/kg oral administration; one, two and three hours after administration; compared to partial sciatic nerve ligation+distilled water group

## CC(C)C[C@H](CN)CC(=O)O [pregabalin, reference compound]
  analgesic action, total score in the von Frey test: statistically significant analgesic action
